# Test results reported in the supplement of paper PMC8728848.
# The other results are listed elsewhere or left out.
# Assays:
# Assay in all cases: glycan array binding signal (z-score within array); higher = stronger binding
# Settings in all cases: glycan notation: IUPAC condensed, linker removed
# Man(b1-4)GlcNAc = target: Man(b1-4)GlcNAc
# Method in brief: (§1)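 Glycan array data came from 3228 arrays in the Consortium for Functional Glycomics database, and only arrays with an available protein sequence were kept. Glycan names were put into IUPAC-condensed notation, and columns mapping to the same glycan were averaged. The binding signal is a within-array Z-score, averaged across arrays of one protein sequence run at different concentrations or buffers and across linkers. A negative Z-score can be read as non-binding.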
# Neu5Ac(a2-3)Gal = target: Neu5Ac(a2-3)Gal
# Method in brief: as §1
# [1] = target: Neu5Ac(a2-3)Gal(b1-3)GalNAc
# Method in brief: as §1
# [2] = target: Neu5Ac(a2-3)Gal(b1-3)GalNAc(b1-3)Gal(a1-4)Gal(b1-4)Glc
# Method in brief: as §1
# [3] = target: Neu5Ac(a2-3)Gal(b1-3)GalNAc(b1-4)[Neu5Ac(a2-3)]Gal(b1-4)Glc
# Method in brief: as §1
# [4] = target: Neu5Ac(a2-3)Gal(b1-3)GalNAc6S
# Method in brief: as §1
# [5] = target: Neu5Ac(a2-3)Gal(b1-3)GlcNAc
# Method in brief: as §1
# [6] = target: Neu5Ac(a2-3)Gal(b1-3)GlcNAc(b1-2)Man(a1-3)[Neu5Ac(a2-3)Gal(b1-3)GlcNAc(b1-2)Man(a1-6)]Man(b1-4)GlcNAc(b1-4)GlcNAc
# Method in brief: as §1
# [7] = target: Neu5Ac(a2-3)Gal(b1-3)GlcNAc(b1-3)Gal(b1-3)GlcNAc
# Method in brief: as §1
# [8] = target: Neu5Ac(a2-3)Gal(b1-3)GlcNAc(b1-3)Gal(b1-4)GlcNAc
# Method in brief: as §1
# [9] = target: Neu5Ac(a2-3)Gal(b1-3)GlcNAc(b1-3)GalNAc
# Method in brief: as §1
# [10] = target: Neu5Ac(a2-3)Gal(b1-3)GlcNAc6S
# Method in brief: as §1
# [11] = target: Neu5Ac(a2-3)Gal(b1-3)[Fuc(a1-4)]GlcNAc
# Method in brief: as §1
# [12] = target: Neu5Ac(a2-3)Gal(b1-3)[Fuc(a1-4)]GlcNAc(b1-3)Gal(b1-3)[Fuc(a1-4)]GlcNAc
# Method in brief: as §1
# [13] = target: Neu5Ac(a2-3)Gal(b1-3)[Fuc(a1-4)]GlcNAc(b1-3)Gal(b1-4)[Fuc(a1-3)]GlcNAc
# Method in brief: as §1
# [14] = target: Neu5Ac(a2-3)Gal(b1-3)[Neu5Ac(a2-3)Gal(b1-4)]GlcNAc
# Method in brief: as §1
# [15] = target: Neu5Ac(a2-3)Gal(b1-3)[Neu5Ac(a2-6)]GalNAc
# Method in brief: as §1
# Neu5Ac(a2-3)Gal(b1-4)Glc = target: Neu5Ac(a2-3)Gal(b1-4)Glc
# Method in brief: as §1
# [16] = target: Neu5Ac(a2-3)Gal(b1-4)GlcNAc
# Method in brief: as §1
# [17] = target: Neu5Ac(a2-3)Gal(b1-4)GlcNAc(b1-2)Man(a1-3)[GlcNAc(b1-2)Man(b1-4)GlcNAc(b1-2)Man(a1-6)]Man(b1-4)GlcNAc(b1-4)GlcNAc
# Method in brief: as §1
# [18] = target: Neu5Ac(a2-3)Gal(b1-4)GlcNAc(b1-2)Man(a1-3)[Neu5Ac(a2-6)Gal(b1-4)GlcNAc(b1-2)Man(a1-6)]Man(b1-4)GlcNAc(b1-4)GlcNAc
# Method in brief: as §1
# [19] = target: Neu5Ac(a2-3)Gal(b1-4)GlcNAc(b1-3)Gal(b1-3)GlcNAc
# Method in brief: as §1
# [20] = target: Neu5Ac(a2-3)Gal(b1-4)GlcNAc(b1-3)Gal(b1-4)GlcNAc
# Method in brief: as §1
# [21] = target: Neu5Ac(a2-3)Gal(b1-4)GlcNAc(b1-3)Gal(b1-4)GlcNAc(b1-3)Gal(b1-4)GlcNAc
# Method in brief: as §1
# [22] = target: Neu5Ac(a2-3)Gal(b1-4)GlcNAc(b1-3)Gal(b1-4)[Fuc(a1-3)]GlcNAc
# Method in brief: as §1
# [23] = target: Neu5Ac(a2-3)Gal(b1-4)GlcNAc(b1-3)GalNAc
# Method in brief: as §1
# [24] = target: Neu5Ac(a2-3)Gal(b1-4)GlcNAc(b1-6)[Gal(b1-3)]GalNAc
# Method in brief: as §1
# [25] = target: Neu5Ac(a2-3)Gal(b1-4)GlcNAc(b1-6)[Neu5Ac(a2-3)Gal(b1-3)]GalNAc
# Method in brief: as §1
# [26] = target: Neu5Ac(a2-3)Gal(b1-4)GlcNAc6S
# Method in brief: as §1
# [27] = target: Neu5Ac(a2-3)Gal(b1-4)[Fuc(a1-3)]GlcNAc
# Method in brief: as §1
# [28] = target: Neu5Ac(a2-3)Gal(b1-4)[Fuc(a1-3)]GlcNAc(b1-3)Gal
# Method in brief: as §1
# [29] = target: Neu5Ac(a2-3)Gal(b1-4)[Fuc(a1-3)]GlcNAc(b1-3)Gal(b1-4)GlcNAc
# Method in brief: as §1
# [30] = target: Neu5Ac(a2-3)Gal(b1-4)[Fuc(a1-3)]GlcNAc(b1-3)Gal(b1-4)[Fuc(a1-3)]GlcNAc(b1-3)Gal(b1-4)[Fuc(a1-3)]GlcNAc
# Method in brief: as §1
# [31] = target: Neu5Ac(a2-3)Gal(b1-4)[Fuc(a1-3)]GlcNAc(b1-3)GalNAc
# Method in brief: as §1
# [32] = target: Neu5Ac(a2-3)Gal(b1-4)[Fuc(a1-3)]GlcNAc(b1-6)[Gal(b1-3)]GalNAc
# Method in brief: as §1
# [33] = target: Neu5Ac(a2-3)Gal(b1-4)[Fuc(a1-3)]GlcNAc(b1-6)[Neu5Ac(a2-3)Gal(b1-3)]GalNAc
# Method in brief: as §1
# [34] = target: Neu5Ac(a2-3)Gal(b1-4)[Fuc(a1-3)]GlcNAc6S
# Method in brief: as §1
# [35] = target: Neu5Ac(a2-3)Gal6S(b1-4)GlcNAc
# Method in brief: as §1
binder,measurement,setting,value
"SAG1 (Toxoplasma gondii), P13664 (protein) MSVSLHHFIISSGFLTSMFPKAVRRAVTAGVFAAPTLMSFLRCGVMASDPPLVANQVVTCPDKKSTAAVILTPTENHFTLKCPKTALTEPPTLAYSPNRQICPAGTTSSCTSKAVTLSSLIPEAEDSWWTGDSASLDTAGIKLTVPIEKFPVTTQTFVVGCIKGDDAQSCMVTVTVQARASSVVNNVARCSYGADSTLGPVKLSAEGPTTMTLVCGKDGVKVPQDNNQYCSGTTLTGCNEKSFKDILPKLTENPWQGNASSDKGATLTIKKEAFPAESKSVIIGCTGGSPEKHHCTVKLEFAGAAGSAKSAAGTASHVSIFAMVIGLIGSIAACVA",glycan array binding signal (z-score),Man(b1-4)GlcNAc,-0.564
same,glycan array binding signal (z-score),Neu5Ac(a2-3)Gal,0.387
same,glycan array binding signal (z-score),[1],-0.13
same,glycan array binding signal (z-score),[2],0.861
same,glycan array binding signal (z-score),[3],0.728
same,glycan array binding signal (z-score),[4],-0.871
same,glycan array binding signal (z-score),[5],0
same,glycan array binding signal (z-score),[6],0.289
same,glycan array binding signal (z-score),[7],0.558
same,glycan array binding signal (z-score),[8],0.888
same,glycan array binding signal (z-score),[9],-0.984
same,glycan array binding signal (z-score),[10],-0.099
same,glycan array binding signal (z-score),[11],-0.451
same,glycan array binding signal (z-score),[12],-0.35
same,glycan array binding signal (z-score),[13],-1.01
same,glycan array binding signal (z-score),[14],-0.501
same,glycan array binding signal (z-score),[15],-0.007
same,glycan array binding signal (z-score),Neu5Ac(a2-3)Gal(b1-4)Glc,-0.371
same,glycan array binding signal (z-score),[16],-0.545
same,glycan array binding signal (z-score),[17],-0.884
same,glycan array binding signal (z-score),[18],0.266
same,glycan array binding signal (z-score),[19],0.139
same,glycan array binding signal (z-score),[20],-0.542
same,glycan array binding signal (z-score),[21],-0.703
same,glycan array binding signal (z-score),[22],1.71
same,glycan array binding signal (z-score),[23],-0.406
same,glycan array binding signal (z-score),[24],-0.436
same,glycan array binding signal (z-score),[25],1.61
same,glycan array binding signal (z-score),[26],-0.704
same,glycan array binding signal (z-score),[27],-0.651
same,glycan array binding signal (z-score),[28],-0.563
same,glycan array binding signal (z-score),[29],0.518
same,glycan array binding signal (z-score),[30],-0.556
same,glycan array binding signal (z-score),[31],3.63
same,glycan array binding signal (z-score),[32],0.154
same,glycan array binding signal (z-score),[33],0.331
same,glycan array binding signal (z-score),[34],-0.651
same,glycan array binding signal (z-score),[35],-0.584

# Reformatted tab-delimited: entries from further up
binder	measurement	setting	value
SAG1 (Toxoplasma gondii), P13664 (protein) MSVSLHHFIISSGFLTSMFPKAVRRAVTAGVFAAPTLMSFLRCGVMASDPPLVANQVVTCPDKKSTAAVILTPTENHFTLKCPKTALTEPPTLAYSPNRQICPAGTTSSCTSKAVTLSSLIPEAEDSWWTGDSASLDTAGIKLTVPIEKFPVTTQTFVVGCIKGDDAQSCMVTVTVQARASSVVNNVARCSYGADSTLGPVKLSAEGPTTMTLVCGKDGVKVPQDNNQYCSGTTLTGCNEKSFKDILPKLTENPWQGNASSDKGATLTIKKEAFPAESKSVIIGCTGGSPEKHHCTVKLEFAGAAGSAKSAAGTASHVSIFAMVIGLIGSIAACVA	glycan array binding signal (z-score)	[10]	-0.099
same	glycan array binding signal (z-score)	[11]	-0.451
